According to publication PMC3599065:
Results are given in words; binding and its absence hold for the method and conditions named. Binding seen in cells or lysates may run through a third protein. A yes stands for co-enrichment or nearness to the bait. Other partners may have been found.

Target: T1, TAP-JIP1 (in Neuro2a) (mouse) (UniProt Q9WVI9)
T1 sequence: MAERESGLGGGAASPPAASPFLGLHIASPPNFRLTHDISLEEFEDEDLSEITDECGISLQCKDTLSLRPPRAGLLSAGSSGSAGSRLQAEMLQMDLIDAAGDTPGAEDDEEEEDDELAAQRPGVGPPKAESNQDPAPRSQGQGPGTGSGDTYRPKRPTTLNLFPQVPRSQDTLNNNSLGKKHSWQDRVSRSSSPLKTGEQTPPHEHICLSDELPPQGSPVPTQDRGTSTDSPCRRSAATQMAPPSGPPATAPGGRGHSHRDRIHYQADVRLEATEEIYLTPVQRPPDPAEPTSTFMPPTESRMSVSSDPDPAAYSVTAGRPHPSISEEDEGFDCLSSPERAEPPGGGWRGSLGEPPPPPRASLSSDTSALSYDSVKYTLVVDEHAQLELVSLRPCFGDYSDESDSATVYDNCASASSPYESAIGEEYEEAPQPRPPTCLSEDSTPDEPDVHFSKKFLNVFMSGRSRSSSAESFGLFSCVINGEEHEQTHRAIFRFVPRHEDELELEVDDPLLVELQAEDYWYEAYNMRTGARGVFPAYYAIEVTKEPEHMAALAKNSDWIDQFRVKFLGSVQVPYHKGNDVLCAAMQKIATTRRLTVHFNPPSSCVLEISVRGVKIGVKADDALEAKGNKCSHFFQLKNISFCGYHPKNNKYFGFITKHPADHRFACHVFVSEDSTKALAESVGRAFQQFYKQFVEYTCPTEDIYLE
Assay: affinity purification with mass spectrometry; TAP-JIP1 expressed in Neuro2a cells (retinoic acid), collected on streptavidin sepharose, SDS-PAGE, the ~180 kDa band digested with trypsin and analysed by MALDI TOF/TOF

binding: binds
B1: JIP3 (endogenous, Neuro2a) (protein, UniProt Q9ESN9 1-1337)
chain: MMEIQMDEGGGVVVYQDDYCSGSVMSERVSGLAGSIYREFERLIHCYDEEVVKELMPLVVNVLENLDSVLSENQEHEVELELLREDNEQLLTQYEREKALRKQAEEKFIEFEDALEQEKKELQIQVEHYEFQTRQLELKAKNYADQISRLEERESEMKKEYNALHQRHTEMIQTYVEHIERSKMQQVGGSGQTESSLPGRSRKERPTSLNVFPLADGMVRAQMGGKLVPAGDHWHLSDLGQLQSSSSYQCPNDEMSESGQSSAAATPSTTGTKSNTPTSSVPSAAVTPLNESLQPLGDYVSVTKNNKQAREKRNSRNMEVQVTQEMRNVSIGMGSSDEWSDVQDIIDSTPELDVCPETRLERTGSSPTQGIVNKAFGINTDSLYHELSTAGSEVIGDVDEGADLLGEFSVRDDFFGMGKEVGNLLLENSQLLETKNALNVVKNDLIAKVDQLSGEQEVLKGELEAAKQAKVKLENRIKELEEELKRVKSEAVTARREPREEVEDVSSYLCTELDKIPMAQRRRFTRVEMARVLMERNQYKERLMELQEAVRWTEMIRASREHPSVQEKKKSTIWQFFSRLFSSSSSPPPAKRSYPSVNIHYKSPTAAGFSQRRSHALCQISAGSRPLEFFPDDDCTSSARREQKREQYRQVREHVRNDDGRLQACGWSLPAKYKQLSPNGGQEDTRMKNVPVPVYCRPLVEKDPSTKLWCAAGVNLSGWKPHEEDSSNGPKPVPGRDPLTCDREGEGEPKSTHPSPEKKKAKETPEADATSSRVWILTSTLTTSKVVIIDANQPGTIVDQFTVCNAHVLCISSIPAASDSDYPPGEMFLDSDVNPEDSGADGVLAGITLVGCATRCNVPRSNCSSRGDTPVLDKGQGDVATTANGKVNPSQSTEEATEATEVPDPGPSESEATTVRPGPLTEHVFTDPAPTPSSSTQPASENGSESNGTIVQPQVEPSGELSTTTSSAAPTMWLGAQNGWLYVHSAVANWKKCLHSIKLKDSVLSLVHVKGRVLVALADGTLAIFHRGEDGQWDLSNYHLMDLGHPHHSIRCMAVVNDRVWCGYKNKVHVIQPKTMQIEKSFDAHPRRESQVRQLAWIGDGVWVSIRLDSTLRLYHAHTHQHLQDVDIEPYVSKMLGTGKLGFSFVRITALLIAGNRLWVGTGNGVVISIPLTETVVLHRGQLLGLRANKTSPTSGEGTRPGGIIHVYGDDSSDKAASSFIPYCSMAQAQLCFHGHRDAVKFFVSVPGNVLATLNGSVLDSPSEGPGPAAPAADAEGQKLKNALVLSGGEGYIDFRIGDGEDDETEECAGDVNQTKPSLSKAERSHIIVWQVSYTPE
